Values quoted from earlier work as cited in patent publication US7390505B2, “Nanoparticulate topiramate formulations” (Elan Pharma International, Ltd., priority 2003, dated 2008).
For at least one compound, name, drawing or mass did not settle the structure.

System: nicotine-triggered increases in norepinephrine and dopamine
Details: rats, pretreatment with topiramate

SMILES: CC1(C)O[C@@H]2[C@@H](CO[C@@]3(COS(N)(=O)=O)OC(C)(C)O[C@@H]23)O1 [Topiramate, 2,3:4,5-Di-O-isopropylidene-β-D-fructopyranose sulfamate]
- nicotine-triggered increases in norepinephrine and dopamine: completely blocked
